Results are given in words; binding and its absence hold for the method and conditions named. Binding seen in cells or lysates may run through a third protein. These calls come from enrichment with a bait or labelling near it, and not all partners need be listed.

The record followed here is publication doi:10.1101/2022.05.12.491601.

In the test the target is T1, P2X4 receptor (mouse (endogenous in BMDM)) (UniProt Q9JJX6).
T1 sequence: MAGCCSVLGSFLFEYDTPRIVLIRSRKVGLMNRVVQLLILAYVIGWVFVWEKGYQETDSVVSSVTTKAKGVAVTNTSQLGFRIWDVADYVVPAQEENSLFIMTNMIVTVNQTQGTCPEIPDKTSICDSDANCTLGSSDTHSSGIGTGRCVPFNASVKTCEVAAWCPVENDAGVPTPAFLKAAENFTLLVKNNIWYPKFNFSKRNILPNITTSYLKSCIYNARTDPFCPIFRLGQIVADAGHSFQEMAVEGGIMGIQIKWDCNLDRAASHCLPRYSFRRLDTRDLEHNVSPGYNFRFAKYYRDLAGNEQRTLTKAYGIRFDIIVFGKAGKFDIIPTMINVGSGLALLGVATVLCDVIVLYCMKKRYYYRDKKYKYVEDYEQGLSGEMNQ
The test can be described thus: affinity purification with mass spectrometry.

B1: ApoE (protein, UniProt P08226 19-311)
chain: EGEPEVTDQLEWQSNQPWEQALNRFWDYLRWVQTLSDQVQEELQSSQVTQELTALMEDTMTEVKAYKKELEEQLGPVAEETRARLGKEVQAAQARLGADMEDLRNRLGQYRNEVHTMLGQSTEEIRARLSTHLRKMRKRLMRDAEDLQKRLAVYKAGAREGAERGVSAIRERLGPLVEQGRQRTANLGAGAAQPLRDRAQAFGDRIRGRLEEVGNQARDRLEEVREHMEEVRSKMEEQTQQIRLQAEIFQARLKGWFEPIVEDMHRQWANLMEKIQASVATNPIITPVAQENQ
Regarding B1, the binding result is “binds”.
